Test in all cases: ITC
Series [1] concerns the target T1, NRF1 DBD (human) (UniProt Q16656).
T1 sequence (looked up): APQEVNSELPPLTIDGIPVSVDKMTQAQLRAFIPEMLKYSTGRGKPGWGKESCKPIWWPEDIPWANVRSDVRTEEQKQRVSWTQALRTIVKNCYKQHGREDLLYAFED
Particulars: mean of repeats 0.88, 0.96, 0.86, assigned from figure text; ITC: 20 mM Hepes pH 7.0, 150 mM NaCl, 25 C; protein 20-30 uM, dsDNA 500-600 uM; recombinant …; residues 177-284; protein details: N-terminal His6 removed by TEV (pET28-MHL).

Series [2] has as its target T2, NRF1 DBD R244A (human) (UniProt Q16656).
T2 sequence (looked up): T1 sequence (looked up) with R68A
Particulars: significant reduction or complete loss, ND labels not assignable per mutant; ITC: 20 mM Hepes pH 7.0, 150 mM NaCl, 25 C; protein 20-30 uM, dsDNA 500-600 uM; recombinant protein; residues 177-284; protein details: N-terminal His6 removed by TEV.

Series [3] concerns the target T3, NRF1 DBD K221A (human) (UniProt Q16656).
T3 sequence (looked up): T1 sequence (looked up) with K45A
Particulars: significant reduction or complete loss, ND labels not assignable per mutant; ITC: 20 mM Hepes pH 7.0, 150 mM NaCl, 25 C; protein 20-30 uM, dsDNA 500-600 uM; recombinant protein; residues 177-284; protein details: N-terminal His6 removed by TEV.

For series [4], the target named is T4, NRF1 DBD R206A (human) (UniProt Q16656).
T4 sequence (looked up): T1 sequence (looked up) with R30A
Particulars: significant reduction or complete loss, ND labels not assignable per mutant; ITC: 20 mM Hepes pH 7.0, 150 mM NaCl, 25 C; protein 20-30 uM, dsDNA 500-600 uM; recombinant protein; residues 177-284; protein details: N-terminal His6 removed by TEV.

Series [5] concerns the target T5, NRF1 DBD N242A (human) (UniProt Q16656).
T5 sequence (looked up): T1 sequence (looked up) with N66A
Particulars: significant reduction or complete loss, ND labels not assignable per mutant; ITC: 20 mM Hepes pH 7.0, 150 mM NaCl, 25 C; protein 20-30 uM, dsDNA 500-600 uM; recombinant protein; residues 177-284; protein details: N-terminal His6 removed by TEV.

Series [6] addresses T6, NRF1 DD-DBD (human) (UniProt Q16656).
T6 sequence (looked up): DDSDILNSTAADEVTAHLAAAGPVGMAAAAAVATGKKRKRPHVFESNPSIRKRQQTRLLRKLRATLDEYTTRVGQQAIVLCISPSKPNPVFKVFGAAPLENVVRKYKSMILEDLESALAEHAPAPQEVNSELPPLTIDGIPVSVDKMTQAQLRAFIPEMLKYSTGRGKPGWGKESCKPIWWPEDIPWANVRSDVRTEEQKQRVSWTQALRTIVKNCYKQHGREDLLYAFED
Particulars: ITC: 20 mM Hepes pH 7.0, 150 mM NaCl, 25 C; protein 20-30 uM, dsDNA 500-600 uM; recombinant protein; residues 54-284; protein details: N-terminal His6 removed by TEV (pET28-MHL). (In general: Isothermal titration calorimetry measures the heat released or taken up as one component is titrated into another.)

Numbering of substitutions follows the chain as printed. pKd: −log10 of the molar value. For some assays here: A weaker result is weaker than the reference pair of the same experiment. Where a protein sequence is shown, tags need not be part of it. For some assays here: For at least one entry, the source does not settle the construct or the ends of the probe. For some assays here: At least one verdict rests on a figure or table, not on a statement of the authors.

A word on the pKd: it is the negative decadic logarithm of the Kd, by convention in mol/L. With “GGTGCGCATGCGCACC (double strand) [16 bp DNA]”, the pKd in series [1] was 6.05. Further, the binding result in series [2], in series [3], in series [4] and in series [5] was “binds more weakly” throughout.

With “ATGCTCATGAGCAT (double strand) [GCtC/GaGC]”, the binding result in series [6] was “binds more weakly”.

As for “ATGAGCATGCTCAT (double strand) [GaGC/GCtC]”, in series [6], the binding result is on record as “binds more weakly”.

With “ATACGCATGCGTAT (double strand) [aCGC/GCGt]”, the binding result in series [6] was “binds more weakly”.

Take “ATGTGCATGCACAT (double strand) [GtGC/GCaC]”: the binding result in series [6] was “binds more weakly”.

On to “ATTCGCATGCGAAT (double strand) [tCGC/GCGa]”, for which, in series [6], the binding result is on record as “binds more weakly”.

In the case of “ATGCGAATTCGCAT (double strand) [GCGa/tCGC]”, the binding result in series [6] is given as “binds more weakly”.

For the origin of these results see publication PMC10810270, “Molecular mechanism of specific DNA sequence recognition by NRF1” (Nucleic Acids Research, 2023).
